Source: paper PMC9515611
No constants are given. Whether binding was seen depends on the method and setting. In cells and extracts the contact can be indirect. Binding can be weak; no strength is given. Where a sequence is shown, tags or fusion partners need not be part of it.

Biological target: T1, HA-DLC1 (deleted in liver cancer-1) (human) (UniProt Q96QB1)
T1 sequence: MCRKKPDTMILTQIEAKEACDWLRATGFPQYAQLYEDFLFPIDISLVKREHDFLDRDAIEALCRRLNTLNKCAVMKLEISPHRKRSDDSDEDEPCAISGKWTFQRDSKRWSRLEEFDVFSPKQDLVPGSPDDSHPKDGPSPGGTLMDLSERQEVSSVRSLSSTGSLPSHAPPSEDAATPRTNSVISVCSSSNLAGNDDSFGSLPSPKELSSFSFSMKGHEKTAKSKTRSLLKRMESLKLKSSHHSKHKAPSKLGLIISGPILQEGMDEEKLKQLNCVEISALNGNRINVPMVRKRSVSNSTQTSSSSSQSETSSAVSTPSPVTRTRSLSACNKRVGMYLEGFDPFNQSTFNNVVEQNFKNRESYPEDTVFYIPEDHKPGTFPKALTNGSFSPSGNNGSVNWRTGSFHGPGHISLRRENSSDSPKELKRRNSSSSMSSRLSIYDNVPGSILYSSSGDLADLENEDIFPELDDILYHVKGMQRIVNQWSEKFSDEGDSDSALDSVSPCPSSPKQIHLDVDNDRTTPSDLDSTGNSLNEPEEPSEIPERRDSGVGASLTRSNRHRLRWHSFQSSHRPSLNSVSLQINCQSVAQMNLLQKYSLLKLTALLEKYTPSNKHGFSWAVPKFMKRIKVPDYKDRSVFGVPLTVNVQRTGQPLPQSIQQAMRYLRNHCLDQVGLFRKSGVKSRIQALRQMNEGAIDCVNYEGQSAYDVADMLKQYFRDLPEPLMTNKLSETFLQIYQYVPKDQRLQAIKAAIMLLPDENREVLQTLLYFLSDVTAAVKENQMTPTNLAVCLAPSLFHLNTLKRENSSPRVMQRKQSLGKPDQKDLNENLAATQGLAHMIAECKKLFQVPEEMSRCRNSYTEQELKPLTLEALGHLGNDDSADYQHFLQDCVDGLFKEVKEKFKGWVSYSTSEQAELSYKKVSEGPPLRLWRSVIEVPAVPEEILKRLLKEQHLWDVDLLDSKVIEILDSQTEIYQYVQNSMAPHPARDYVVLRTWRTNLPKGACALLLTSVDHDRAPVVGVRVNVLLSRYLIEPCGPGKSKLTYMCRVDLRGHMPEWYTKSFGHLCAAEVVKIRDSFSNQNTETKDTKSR
Assay: co-IP; HEK-293T; Flag-tagged full-length GRP78 or truncations with HA-DLC1

GRP78 ΔN truncation (SBD domain), tagged with Flag (human) (domain or fragment)
binding: binds
